No constants are given. Whether binding was seen depends on the method and setting. For some of these results: Binding seen in cells or lysates may run through a third protein. Some entries that bind do so weakly or less than the wild type.
Tests used:
[1] = target: IL-15Rα-his (Homo sapiens (Human)) (UniProt Q13261); assay: BLI (Octet RED96), receptor immobilised on sensor
[2] = target: Sushi-mIgG2aa.1Fc; assay: co-expression in HEK293, Protein A purification, SEC-HPLC single peak, LC-MS shows both components
[3] = target: Sushi-hIgG4Fc; assay: as above
[4] = target: Sushi-hIgG1Fc; assay: as above

Amino acid sequences for entries named in this document (tags omitted). A change or cut given only in a name is not applied to a line headed by its entry.
UniProt Q13261: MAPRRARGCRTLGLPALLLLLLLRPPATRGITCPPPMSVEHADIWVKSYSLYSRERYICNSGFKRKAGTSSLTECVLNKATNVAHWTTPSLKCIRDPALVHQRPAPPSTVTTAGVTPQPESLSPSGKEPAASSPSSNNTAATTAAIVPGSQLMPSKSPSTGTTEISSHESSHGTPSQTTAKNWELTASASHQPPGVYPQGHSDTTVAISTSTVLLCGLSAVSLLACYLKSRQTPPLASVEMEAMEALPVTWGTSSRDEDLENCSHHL

Measured: binding

B1: IL-2/15 chimera 1 (ligand)
chain: APTSSSTKKTQLQLEHLLLDLQMILNGIQSMHIDATLYTESDVHPSCKVTAMKCFLLELQVISLESGDASIHDTVENLIILANNSLSSNGNVTESGCKECEELEEKNIVEFLNRFITFAQSIISTLT
binds: all assays above

— US20230416326A1
